Results deposited as PubChem BioAssay AID743454 (Peter MacCallum Cancer Centre, 2014)
The deposit covers about 18,000 reagents; below is an unselected part. 450 of them (2.5%) count as active. 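Single biological run; no consistent viability z cut-off exists, so the class columns, not z-scores, define the calls.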 Entries without a mark were called inactive.

Aim: 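Genes whose loss kills vorinostat-resistant colon cancer cells under vorinostat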 (primary screen)
System: human HCT116-VR colon cancer cells, selected for vorinostat resistance
Reagent: siRNA pool against human genes, 40 nM siRNA pool
Timing: vorinostat for 24 h, read-out about 72 h after transfection
Treatment: vorinostat at 2.5 µM final
Detection: 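Two measures, CellTiter-Fluor viability and luminescent caspase 3/7 activity, each as fold change against same-plate mock wells, mean of duplicates, then screen-wide robust z-score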
Direction: viability robust z-score: higher = more viable cells than screen typical; caspase robust z-score: higher = more caspase 3/7 activity than screen typical
Call rule: 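a knock-down is a hit when classed RV1 or RV2 for lowered viability, or CA1 or CA2 for caspase activation; those lethal without drug were dropped; hits were retested singly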

IL23A | viability hit class: no change; caspase hit class: no change; viability robust z-score: 0.97; caspase robust z-score: 0.18
EIF2S3 | viability hit class: no change; caspase hit class: no change; viability robust z-score: -3.66; caspase robust z-score: -0.36
ZBTB10 | viability hit class: no change; caspase hit class: no change; viability robust z-score: 1.06; caspase robust z-score: -0.4
MMAA | viability hit class: no change; caspase hit class: no change; viability robust z-score: -1.54; caspase robust z-score: -0.82
LMTK1 | viability hit class: no change; caspase hit class: no change; viability robust z-score: -0.4; caspase robust z-score: -0.2
PHKG2 | viability hit class: no change; caspase hit class: no change; viability robust z-score: 0.26; caspase robust z-score: -0.61
CNNM2 | viability hit class: no change; caspase hit class: no change; viability robust z-score: 0.74; caspase robust z-score: 0.34
ANKRD34B | viability hit class: no change; caspase hit class: no change; viability robust z-score: 0.2; caspase robust z-score: 1.73
CLEC4F | viability hit class: no change; caspase hit class: no change; viability robust z-score: -0.66; caspase robust z-score: -1.19
DCX | viability hit class: no change; caspase hit class: no change; viability robust z-score: 0.46; caspase robust z-score: -0.57
NEK10 | viability hit class: no change; caspase hit class: no change; viability robust z-score: -0.32; caspase robust z-score: -0.05
TKTL2 | viability hit class: no change; caspase hit class: no change; viability robust z-score: -0.96; caspase robust z-score: 0.01
MRPL54 | viability hit class: no change; caspase hit class: no change; viability robust z-score: 1.89; caspase robust z-score: 2.75
WNT1 | viability hit class: no change; caspase hit class: no change; viability robust z-score: -1.11; caspase robust z-score: 1.98
CA5A | viability hit class: no change; caspase hit class: no change; viability robust z-score: -0.78; caspase robust z-score: -1.39
ANGPTL8 | viability hit class: no change; caspase hit class: no change; viability robust z-score: 0.18; caspase robust z-score: 1.1
CYP2B6 | viability hit class: no change; caspase hit class: no change; viability robust z-score: -0.04; caspase robust z-score: -0.22
NT5M | viability hit class: no change; caspase hit class: no change; viability robust z-score: -0.64; caspase robust z-score: -0.7
SHTN1 | viability hit class: no change; caspase hit class: no change; viability robust z-score: -1.21; caspase robust z-score: 3.35
UBXN2A | viability hit class: no change; caspase hit class: no change; viability robust z-score: 0.58; caspase robust z-score: -0.54
SLC25A14 | viability hit class: no change; caspase hit class: no change; viability robust z-score: -1.98; caspase robust z-score: 1.1

Entries above whose gene name begins with C or c:
CNNM2 | viability hit class: no change; caspase hit class: no change; viability robust z-score: 0.74; caspase robust z-score: 0.34
CLEC4F | viability hit class: no change; caspase hit class: no change; viability robust z-score: -0.66; caspase robust z-score: -1.19
CA5A | viability hit class: no change; caspase hit class: no change; viability robust z-score: -0.78; caspase robust z-score: -1.39
CYP2B6 | viability hit class: no change; caspase hit class: no change; viability robust z-score: -0.04; caspase robust z-score: -0.22
